Test results as given in publication PMC11720309, “Transcriptional regulation of miR528-PPO module by miR156 targeted SPLs orchestrates chilling response in banana”.
The exact form of at least one protein or probe is not confirmed. For some of these results: No signal at the amounts used counts as a negative.

Tests used:
MaSPL25 [1] = assay: competition with a labelled probe; conditions: unlabeled competitor vs biotin-N1 (EMSA); Chemiluminescent EMSA Kit (Thermo Fisher); pH and temperature not stated; recombinant protein; protein details: GST (N-terminal, pGEX-4T-3); label: none (biotin-free mutant competitor)
MaSPL42 [2] = assay: competition with a labelled probe; conditions: unlabeled competitor vs biotin-N1 (EMSA); Chemiluminescent EMSA Kit (Thermo Fisher); pH and temperature not stated; recombinant protein; protein details: GST (N-terminal, pGEX-4T-3); label: none (biotin-free mutant competitor)
MaSPL25 [3] = assay: EMSA; conditions: Chemiluminescent EMSA Kit (Thermo Fisher); pH and temperature not stated; recombinant protein; protein details: GST (N-terminal, pGEX-4T-3)
MaSPL42 [4] = assay: EMSA; conditions: Chemiluminescent EMSA Kit (Thermo Fisher); pH and temperature not stated; recombinant protein; protein details: GST (N-terminal, pGEX-4T-3)

Sequence	binding result (MaSPL25 [1])	binding result (MaSPL42 [2])	binding result (MaSPL25 [3])	binding result (MaSPL42 [4])
GCGCAAAAAAGTGCAAAAATAAGATACTACACAAACCACACAATAGAAAAAACACTATC (double strand) [MamiR528pro-mut-probe]	no binding	no binding		
GCGCAGTACAGTGCAGTACTAAGATACTACACAAACCACACAATAGAAGTACCACTATC (double strand) [MamiR528pro-probe]			binds	binds
